Where no end group is shown, it is not given here. [ ]: non-standard residue; d: D form. pGlu = O=C1CC[C@@H](C(=O)O)N1

A short description of data set [1]: general procedure: solution-phase peptide synthesis; p-nitrophenyl active esters (solution phase); Fmoc amino acid OPfp esters (solid). The following applies: for step yield: coupling step.
Data set [2] is described as follows: Fmoc solid-phase peptide synthesis; p-nitrophenyl active esters (solution phase); Fmoc amino acid OPfp esters (solid). The following applies: whole synthesis.

With “BENZYLOXYCARBONYL-L-PYROGLUTAMYL-(γ-BENZYL)-L-GLUTAMYL-(β-BENZYL)-L-ASPARTYL-(S-p-METHOXYBENZYL)-L-CYSTEINYL-(ε-BENZYL-OXYCARBONYL)-L-LYSINE BENZYLESTER (IV)”, the step yield in data set [1] came to 96%.
Take [pGlu]EDSK: in data set [2], the isolated yield came to 44%. In data set [1] (whole synthesis, HPLC RP18, 214 nm), the “final HPLC purity” value was “More than 92%”.
“t-Boc-(γ-BENZYL)-L-GLUTAMYL-(β-BENZYL)-L-ASPARTYL-(S-p-METHOXYBENZYL)-L-CYSTEINYL-(ε-BENZYLOXYCARBONYL)-L-LYSINE BENZYLESTER (III)”: the step yield in data set [1] is recorded as 100%.

Source of the values: patent US5484770A (Hafslund Nycomed Bioreg AS, priority 1988, dated 1996).
